The values below come from paper PMC7862700.

The target of experiment [1] is T1, ELK4 (UniProt P28324-2).
T1 sequence: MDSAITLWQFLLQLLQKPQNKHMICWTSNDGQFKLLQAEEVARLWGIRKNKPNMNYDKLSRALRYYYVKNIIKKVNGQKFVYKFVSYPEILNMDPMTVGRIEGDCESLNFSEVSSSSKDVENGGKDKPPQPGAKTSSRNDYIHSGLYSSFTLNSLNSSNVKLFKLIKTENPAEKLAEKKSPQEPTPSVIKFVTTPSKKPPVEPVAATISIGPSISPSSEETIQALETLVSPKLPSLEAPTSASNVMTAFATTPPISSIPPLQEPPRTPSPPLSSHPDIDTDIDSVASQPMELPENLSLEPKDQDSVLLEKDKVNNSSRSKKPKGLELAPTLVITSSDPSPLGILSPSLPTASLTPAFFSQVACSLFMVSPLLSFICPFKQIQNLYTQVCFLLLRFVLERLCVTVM
As to the kind of experiment: DAPPL (digital affinity profiling via proximity ligation, sequencing). Conditions: 10 mM Tris-HCl pH 7.5, 50 mM NaCl, 1 mM DTT, 4% glycerol, room temperature, 30 min; GST-TFs on glutathione beads, 16-mer random dsDNA library, 0.1% …; high values mean tight binding; double strand, one strand shown; scale: fold enrichment (6-mer frequency, TF over GST control).

Experiment [2] concerns the target T2, ETV4 (UniProt P43268).
T2 sequence: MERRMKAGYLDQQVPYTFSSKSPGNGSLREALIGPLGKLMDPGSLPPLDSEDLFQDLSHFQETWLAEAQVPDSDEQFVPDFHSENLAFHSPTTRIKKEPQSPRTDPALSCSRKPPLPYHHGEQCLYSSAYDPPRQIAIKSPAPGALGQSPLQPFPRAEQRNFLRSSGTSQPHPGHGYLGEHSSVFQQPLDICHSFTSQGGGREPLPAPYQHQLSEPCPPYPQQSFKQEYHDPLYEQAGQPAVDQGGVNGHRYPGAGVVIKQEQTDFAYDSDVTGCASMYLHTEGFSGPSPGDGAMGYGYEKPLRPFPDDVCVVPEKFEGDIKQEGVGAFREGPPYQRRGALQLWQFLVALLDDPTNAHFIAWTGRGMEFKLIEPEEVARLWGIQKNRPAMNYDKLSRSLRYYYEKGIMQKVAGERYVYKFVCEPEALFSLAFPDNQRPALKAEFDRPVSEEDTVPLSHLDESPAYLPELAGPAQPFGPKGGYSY
The description is as above. To be noted: 10 mM Tris-HCl pH 7.5, 50 mM NaCl, 1 mM DTT, 4% glycerol, room temperature, 30 min; GST-TFs on glutathione beads, 16-mer random dsDNA library, 0.1% …; high values mean tight binding; double strand, one strand shown; scale: fold enrichment (6-mer frequency, TF over GST control).

This is a selection; strong and weak results do not stand in their true shares. For part of these data: At the low end of the ranking the order means little. The list shows a part of the results. For part of these data: The source does not settle which construct or isoform was used.

Regarding CAACGC, the binding signal in experiment [1] was 1.03; in experiment [2] it was 1.16.
With GCGCCC, the binding signal in experiment [1] is 1.02; in experiment [2], 1.13.
Take TAGATC: the binding signal turned out to be 0.957 in experiment [1] and 1 in experiment [2].
For TCCGAT the same measures were 1.25 and 1.37.
For TACGCG the same measures were 1.25 and 1.1.
The matching figures for GGTTTG: 1.26 and 1.13.
TACGGA: the binding signal in experiment [1] came to 1.15; in experiment [2], 1.22.
For CTCGTC the same measures were 1.57 and 1.37.
TTTCTA: the binding signal in experiment [1] worked out at 1.34; in experiment [2], 1.4.
The matching figures for CTATCG: 1.09 and 1.
The matching figures for CGATGT: 0.99 and 1.09.
For GGATGC the same measures were 1.13 and 1.23.
For the sequence CACCCC, the binding signal came to 1.47 in experiment [1] and 1.25 in experiment [2].
The matching figures for ACATTT: 1.36 and 1.39.
For GCCGCC the same measures were 0.973 and 1.03.
For the sequence CTATTT, the binding signal was 1.88 in experiment [1] and 1.65 in experiment [2].
For GGTAAA the same measures were 1.11 and 1.05.
The matching figures for TTCTAA: 1.22 and 1.19.
For AACTGA the same measures were 0.976 and 1.08.
As for TTATGG, the binding signal in experiment [1] was determined as 1.24; in experiment [2], 1.44.
For AATATC the same measures were 1.48 and 1.58.
With CAAAGC, the figures for the binding signal in experiment [1] and in experiment [2] were 1.24 and 1.06, respectively.
As to TAACTT, the binding signal stood at 1.32 in experiment [1] and 1.5 in experiment [2].
For CCCACC the same measures were 1.26 and 1.21.
The matching figures for TCCTAA: 1.39 and 1.4.
For TTGCTC the same measures were 1.16 and 1.36.
With AAGGAT, the binding signal in experiment [1] came to 1.08; in experiment [2] it was 1.13.
For GTACTA the same measures were 0.975 and 1.12.
For AACGCA the same measures were 0.96 and 1.03.
The matching figures for AAAACG: 1.19 and 1.12.
For the sequence CTTAAT, the results for the binding signal in experiment [1] and in experiment [2] were 1.22 and 1.32, respectively.
For TATAGA, the values for the binding signal in experiment [1] and in experiment [2] were 1 and 1.09, respectively.
For TTTTCC, the values for the binding signal in experiment [1] and in experiment [2] were 1.62 and 1.6, respectively.
The matching figures for GAAGAA: 1.17 and 1.14.
The matching figures for GCTTCC: 2.98 and 3.89.
The matching figures for AGCTCT: 1.22 and 1.3.
Regarding GGTTCC, the figures for the binding signal in experiment [1] and in experiment [2] were 1.38 and 1.63, respectively.
For AAATCA the same measures were 1.23 and 1.19.
For CTACAA the same measures were 1.21 and 1.19.
In the case of CCCGTC, the binding signal in experiment [1] stood at 0.992; in experiment [2] it was 1.11.
The matching figures for ATAATG: 1.16 and 1.02.
The matching figures for CATGAT: 1.13 and 1.15.
For TATCTT the same measures were 1.38 and 1.25.
Regarding AATATA, the binding signal in experiment [1] was determined as 1.39; in experiment [2] it was 1.27.
The matching figures for TTTGGA: 1.14 and 1.18.
The matching figures for TAAACT: 1.11 and 1.22.
For CGTATA the same measures were 1.07 and 1.1.
On to CCACTA, for which the results for the binding signal in experiment [1] and in experiment [2] were 1.06 and 1.09, respectively.
The matching figures for ACTTCG: 1.25 and 1.42.
The matching figures for TTGCTG: 1.34 and 1.29.
The matching figures for TTACTT: 1.33 and 1.52.
In the case of ACTGGA, the results for the binding signal in experiment [1] and in experiment [2] were 0.991 and 1, respectively.
For TCTTCG the same measures were 1.45 and 1.69.
For the sequence TACGGC, the binding signal in experiment [1] amounted to 1.19; in experiment [2] it was 1.27.
For ACGGCA, the binding signal came to 0.922 in experiment [1] and 1.02 in experiment [2].
The matching figures for AGCGAT: 1.07 and 1.08.
The matching figures for GCTTAC: 1.1 and 1.18.
